The list shows a part of the results.
Target: OsWRKY34 (Oryza sativa, UniProt Q0JBA9 1-250)
Assay: protein-binding microarray (RPBM); PBS, 2% BSA, 51.3 ng/ul salmon testes DNA, 50 uM zinc acetate, 200 nM TF, 25 C, 1 h; high values mean tight binding
Details: protein: recombinant; tags: N-terminal polyhistidine and DsRed monomer fusion (pET32a); label: CyDye5-dUTP incorporated in the synthesized complementary strand; 3' TTTTT single-stranded linker to array surface; dsDNA, one strand shown
Outline: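 Ni–NTA purification followed expression in E. coli BL21-CodonPlus of transcription factors fused N-terminally to a polyhistidine tag and DsRed. At 200 nM in PBS with 2% BSA, salmon testes DNA and 50 µM zinc acetate, the protein was incubated for 1 h at 25 °C with a custom Agilent array that had been primer-extended with Cy5-dUTP and blocked with 2% BSA. After washing, the array was read on an Axon 4000B scanner. The binding signal is per-feature fluorescence intensity in arbitrary units.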

The chains behind the UniProt entries cited, without tags or fusion partners.
UniProt Q0JBA9, entry or part of it: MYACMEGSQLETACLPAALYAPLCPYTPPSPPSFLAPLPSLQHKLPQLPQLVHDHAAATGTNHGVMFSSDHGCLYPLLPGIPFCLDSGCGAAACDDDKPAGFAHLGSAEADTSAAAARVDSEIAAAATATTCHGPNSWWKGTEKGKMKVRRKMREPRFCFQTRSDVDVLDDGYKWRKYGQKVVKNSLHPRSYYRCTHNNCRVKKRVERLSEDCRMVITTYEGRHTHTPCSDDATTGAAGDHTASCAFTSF

Sequence	binding signal
CCCCATCGCTCGATTCCTTTCCATCCCTCGCCTCCGCGCGCGGAGTCACCTAGTGCAG	10400 fluorescence intensity (a.u.)
GGCGGCTCGTCGGCGGCGGCGGCGGCGGAGGAGGAGGAGGCGGAGTCACCTAGTGCAG	9150 fluorescence intensity (a.u.)
CTTGCCTCGTTGTCACTCACCAACTCTCTTTCTTCTCCATCGGAGTCACCTAGTGCAG	9300 fluorescence intensity (a.u.)
CGTTTTTCATATTGCTTTTAGTTTTCTCTTAGTTTGTCCACGGAGTCACCTAGTGCAG	8840 fluorescence intensity (a.u.)
CTAATCTGGACCGTCCATCCGCACGCAAGTTTTCTCCACCCGGAGTCACCTAGTGCAG	8090 fluorescence intensity (a.u.)
GATGTTCTTGCCTGATATTCTTAATTGTTAGCATATCACACGGAGTCACCTAGTGCAG	9020 fluorescence intensity (a.u.)
CTCACCGTGTTCTCTGAGTTTATAAGGGGCAATTTTATCTCGGAGTCACCTAGTGCAG	8940 fluorescence intensity (a.u.)
GACTTCGCTTCTTTTGTCTCCTCCTCGACGAATTGTCTCCCGGAGTCACCTAGTGCAG	9240 fluorescence intensity (a.u.)
ATTTTTTTTCCCTAATTTTCGGTTTTCATTTTAACTATACCGGAGTCACCTAGTGCAG	8520 fluorescence intensity (a.u.)
TCCCACGATCCTTTTTCTCCTTTCTTTTCTCTCCTTCTCTCGGAGTCACCTAGTGCAG	10400 fluorescence intensity (a.u.)
CTAATCTGTTTTGTTTTCTGTGCATGGGATCAGTTCCCAACGGAGTCACCTAGTGCAG	11800 fluorescence intensity (a.u.)
TACCTCTTCAGTACAGCTGCAGCTGCTGACTGCTCACTACCGGAGTCACCTAGTGCAG	9480 fluorescence intensity (a.u.)
TAAAGACCTCACACACGTTGCAACGTACTACGAGCTTTTCCGGAGTCACCTAGTGCAG	8950 fluorescence intensity (a.u.)
AGTCATAATAACTTCTTGCGCCAAAAGGCTTCTCAATTGTCGGAGTCACCTAGTGCAG	8070 fluorescence intensity (a.u.)
TCAGTTACCTTCTCTCTTATTGCTACTGATGGTGCATATGCGGAGTCACCTAGTGCAG	8180 fluorescence intensity (a.u.)
ATCCAGGCATTCACCAGCATATGTCAAGCAACTCGCAATTCGGAGTCACCTAGTGCAG	10600 fluorescence intensity (a.u.)
TTCCACGGTTTTCTTTTTTCGGTTTTTATCTTTTCTTTTTCGGAGTCACCTAGTGCAG	13200 fluorescence intensity (a.u.)
CTGTTGTCTGATGATCTGTGGTGGAGTGGTTATGGTGTGTCGGAGTCACCTAGTGCAG	10000 fluorescence intensity (a.u.)
GTGCCTTTACCTGCATTTGGTGTGTTGCTGGTTAATTATGCGGAGTCACCTAGTGCAG	9530 fluorescence intensity (a.u.)
GCGAGACAAATCTTTTAACCCTAATTGCCTCATGATTTGACGGAGTCACCTAGTGCAG	9280 fluorescence intensity (a.u.)
TTGGACTGCTTTGATCTGCAGATCGGTGGACATTTTTCTACGGAGTCACCTAGTGCAG	9250 fluorescence intensity (a.u.)

Single entries from the results shown.
Entry of GTGCCTTTACCTGCATTTGGTGTGTTGCTGGTTAATTATGCGGAGTCACCTAGTGCAG under binding signal: 9530 fluorescence intensity (a.u.)
Entry of CCCCATCGCTCGATTCCTTTCCATCCCTCGCCTCCGCGCGCGGAGTCACCTAGTGCAG under binding signal: 10400 fluorescence intensity (a.u.)

Going on with the list.

Sequence	binding signal
GTGGGTTGGTTGGGCCTGTTCAACGTGGTGTAGCGTTGATCGGAGTCACCTAGTGCAG	9370 fluorescence intensity (a.u.)
TCGAATGCGCTGAATTCACATGTACACAACACCGTATACTCGGAGTCACCTAGTGCAG	10100 fluorescence intensity (a.u.)
GTCCCTCTTCATTCCTTGACTTCTTCTCGTAAGTTAAGATCGGAGTCACCTAGTGCAG	8300 fluorescence intensity (a.u.)
ATGGCGTTTGGGTTTGGCTCGGGTTGATCTGGATAAGGGACGGAGTCACCTAGTGCAG	9020 fluorescence intensity (a.u.)
GTCTATTCCAAATCGGCATTTTGGTACTTTCGGTTTAGGTCGGAGTCACCTAGTGCAG	8400 fluorescence intensity (a.u.)
ACAAACACACTATGTTTTTCAGTGCCTTGCTATATACATTCGGAGTCACCTAGTGCAG	8240 fluorescence intensity (a.u.)
ACGTTTCCATCTTATTTGATACATGTTGCTGCTCCATCTCCGGAGTCACCTAGTGCAG	9160 fluorescence intensity (a.u.)
AGCCACCGTCCTCACGCACGCACCTTCACACACCACCGTCCGGAGTCACCTAGTGCAG	10200 fluorescence intensity (a.u.)
GCCGTTGTTGTCGTCCTCTTCTCCTCCGACGTCGTCGTCGCGGAGTCACCTAGTGCAG	8070 fluorescence intensity (a.u.)
TCCCGCTTCCATCTCACATTCAGGTTCATGTTCTCCTCAGCGGAGTCACCTAGTGCAG	9130 fluorescence intensity (a.u.)
AAGCCATGCGCTCCCATCGCTTCTTCCTCACAAACTTTCCCGGAGTCACCTAGTGCAG	8050 fluorescence intensity (a.u.)
TGAACTCCTAATACTGTCCTACCACTTCTACATGTCTTCTCGGAGTCACCTAGTGCAG	11300 fluorescence intensity (a.u.)
ATATCTGATGTGACACGGCAAAAATTTTCACCCCTAGATTCGGAGTCACCTAGTGCAG	8420 fluorescence intensity (a.u.)
AACAGTCAAATATATGCTAAAAAGTCAACGGTGTAGGAGTCGGAGTCACCTAGTGCAG	14700 fluorescence intensity (a.u.)
CCCTCCCTCCATCCCTTGCTCGCTCGCGCCACAACGTTATCGGAGTCACCTAGTGCAG	8620 fluorescence intensity (a.u.)
CGGGCGGCGGGTGCGGACTGCGGAGGAGGCTGGCGGGGCACGGAGTCACCTAGTGCAG	8630 fluorescence intensity (a.u.)
GTTAGGTTGTTTATGAGTTTTTTTTTCACCTATTCGATAACGGAGTCACCTAGTGCAG	9000 fluorescence intensity (a.u.)
TTCGTCTCCGTCTCCGTCTCCGTCTCGTCGCCGCCTAATCCGGAGTCACCTAGTGCAG	13200 fluorescence intensity (a.u.)
TGGTTAAAAAGTCAACGGTGTCATACATTAAAATACGGAGCGGAGTCACCTAGTGCAG	16300 fluorescence intensity (a.u.)
CAACTATCTAATTCTATTCATTTTGGTCAAATCTCATCTGCGGAGTCACCTAGTGCAG	9510 fluorescence intensity (a.u.)
TCTTCTAATAATGTAATTAGTTAAACCGGTTTTATGTTTTCGGAGTCACCTAGTGCAG	8170 fluorescence intensity (a.u.)

From paper PMC7819943, “Rice protein-binding microarrays: a tool to detect cis-acting elements near promoter regions in rice”
